PubChem BioAssay AID504793 | Drosophila RNAi Screening Center, 2011

- Screen: 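Genes required for cells to halt at G2/M after double-strand DNA breaks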 (primary screen)
- Cells: Drosophila S2R+ cells
- Reagent: long dsRNA against Drosophila genes, about 0.25 µg dsRNA per well
- Duration: 4 days of dsRNA, then 4 hours of drug before read-out
- Treatment: doxorubicin 0.5 µM for 4 hours to cause double-strand breaks, in cells also given a low, harmless dose of dsRNA against nbs to sensitise the assay
- Detection: 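Per-well count of mitotic cells stained for phospho-histone H3 after doxorubicin exposure, used as mitotic index; counts are raw and not normalised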
- Direction: mitotic cells: higher = more cells in mitosis, weaker G2 arrest
- Call rule: 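Genes are called active only when high mitotic counts were reproduced with independent dsRNAs and mitosis was checked for delay without damage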
- Meaning of the calls: active = confirmed in follow-up tests; inactive = not confirmed
The deposit covers about 23,000 reagents; shown is a random part of those with a known target gene and a result. In the full data, 62 (0.27%) got an active call. 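Calls come from follow-up tests whose scores are not deposited, so confirmed genes may have low counts here; counts are not normalised per plate.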 Raw values vary from plate to plate and are shown uncorrected. Entries without a mark were called inactive. No sequences are given here.

Silencing of Ttc30 (GeneID 34702) [DRSC02818] came out at: mitotic cells, replicate 1 = 9. After knock-down of Ttc30 (GeneID 34702) [DRSC25846], the record shows mitotic cells, replicate 1 = 3. Depletion of nej (GeneID 43856) [DRSC18006] resulted in: mitotic cells, replicate 1 = 11. Silencing of nej (GeneID 43856) [DRSC18801] came out at: mitotic cells, replicate 1 = 10. Knock-down of nej (GeneID 43856) [DRSC25087] resulted in: mitotic cells, replicate 1 = 10. With knock-down of nej (GeneID 43856) [DRSC26774], the record shows mitotic cells, replicate 1 = 7.

Against CG1791 (GeneID 31927) [DRSC18141], the values are mitotic cells, replicate 1 = 9. After knock-down of CG1791 (GeneID 31927) [DRSC29301] the results were mitotic cells, replicate 1 = 12. After knock-down of CalpC (GeneID 32597) [DRSC19873] the results were mitotic cells, replicate 1 = 8. Against CG13670 (GeneID 38938) [DRSC10029], the values are mitotic cells, replicate 1 = 8. With knock-down of CG13670 (GeneID 38938) [DRSC26092], the record shows mitotic cells, replicate 1 = 9. nonC (GeneID 31625) [DRSC18366] gave mitotic cells, replicate 1 = 4.

nonC (GeneID 31625) [DRSC18367] gave mitotic cells, replicate 1 = 8. With knock-down of ntc (GeneID 38443) [DRSC08166], the screen gave mitotic cells, replicate 1 = 8. Against CG13801 (GeneID 38299) [DRSC08335], the values are mitotic cells, replicate 1 = 12. After knock-down of CG34431 (GeneID 5740655) [DRSC29884], the screen gave mitotic cells, replicate 1 = 6. Knock-down of Dpp10 (GeneID 33923) [DRSC00942] resulted in: mitotic cells, replicate 1 = 7. Knock-down of Dpp10 (GeneID 33923) [DRSC02139] resulted in: mitotic cells, replicate 1 = 6.

After knock-down of CG4793 (GeneID 34941) [DRSC01966] the results were mitotic cells, replicate 1 = 8. Depletion of Obp46a (GeneID 36088) [DRSC06220] resulted in: mitotic cells, replicate 1 = 8. With knock-down of CG43795 (GeneID 5740629) [DRSC04192] the results were mitotic cells, replicate 1 = 4. Against CG43795 (GeneID 5740629) [DRSC04193] the deposit lists mitotic cells, replicate 1 = 6. With knock-down of CG43795 (GeneID 5740629) [DRSC04194] the results were mitotic cells, replicate 1 = 5. Knock-down of CG43795 (GeneID 5740629) [DRSC04309] came out at: mitotic cells, replicate 1 = 12.

CG43795 (GeneID 5740629) [DRSC04310] gave mitotic cells, replicate 1 = 8. Silencing of CG43795 (GeneID 5740629) [DRSC22826] gave: mitotic cells, replicate 1 = 25. Against CG43795 (GeneID 5740629) [DRSC26752], the entry reads mitotic cells, replicate 1 = 5. CheA75a (GeneID 40011) [DRSC10807] gave mitotic cells, replicate 1 = 7. With knock-down of Jhbp14 (GeneID 34728) [DRSC01988] the results were mitotic cells, replicate 1 = 3. Silencing of Hil (GeneID 37328) [DRSC05989] came out at: mitotic cells, replicate 1 = 6.

After knock-down of Hil (GeneID 37328) [DRSC06395] the results were mitotic cells, replicate 1 = 3. Depletion of CG15023 (GeneID 38550) [DRSC08477] came out at: mitotic cells, replicate 1 = 2. Against CG15023 (GeneID 38550) [DRSC25462], the values are mitotic cells, replicate 1 = 10. Spn47C (GeneID 36163) [DRSC07030] showed mitotic cells, replicate 1 = 7. For Spn47C (GeneID 36163) [DRSC30068], the entry reads mitotic cells, replicate 1 = 3.

In a second layout: results already given
Target gene	dsRNA	mitotic cells, replicate 1
Ttc30 (GeneID 34702)	DRSC25846	3
nej (GeneID 43856)	DRSC18006	11
nej (GeneID 43856)	DRSC18801	10
nej (GeneID 43856)	DRSC25087	10
nej (GeneID 43856)	DRSC26774	7
